# In patent publication US20040242590A1, “Pharmaceutical composition comprising gamma-butyrobetaine” (priority 2001, published 2004):
# For at least one compound, name, drawing or mass did not settle the structure.
# What was measured:
# [1] = test system: copulating activity of male rats; assay: rat copulating behaviour in state of physiological depression; format: in vivo, Wistar rats
# Description: The pharmacological effects of GBB, THP and their combination on the sexual activity of mammals was investigated by a model based on rat copulating behaviour in state of physiological depression.
# Experiments were conducted on adult Wistar rats of both sexes with initial body weight of 300-330 g. During the experiment, the animals were kept in standard crates in groups of 6. The feed was a standartized diet R70 (LABFOR, Lactamin AB, Sweden). The room temperature was kept at 21-23° C., relative humidity at 65±10%, 12 hour light/darkness cycle. During one week before the experiment it was established that the average water consumption by the rats was 8.2-12% (average —10%) of their body mass.
# Male rats were distributed randomly into 4 groups, each of 6 animals, and supplied for 6 weeks with the following aqueous solutions:
# Group 1 (Control Group)—ding water without any additives;
# Group 2 (GBB Group)—drinking water was supplemented by gamma-butyrobetaine (0.015% by weight), resulting in the average daily gamma-butyrobetaine intake of 15 mg/kg;
# Group 3 (THP Group)—drinking water was supplemented by THP (0.06% by weight), resulting in the average daily THP intake of 60 mg/kg;
# Group 4 (GBB+THP Group)—drinking water was supplemented by THP (0.06% by weight) and gamma-butyrobetaine (0.015% by weight), resulting in the average daily […]) intake of 60 mg/kg and gamma-butyrobetaine intake of 15 mg/kg.
# The copulating activity of male rats was tested four times: after one week, after four weeks, after six weeks and 48-50 hours after the discontinuation of substance intake, when all animals were receiving drinking water without additives.
# The tests were conducted between 10 and 12 a.m. 6 male rats of one group were placed into a clean, well illuminated crate (box). After 5 min. adaptation period 2 female rats were placed into the box for 10 minutes. For each male rat the following data were collected:
# 1) copulating intensity (number of copulations during the exposition period);
# 3) postcoital period—the behaviour of male rats during 5 min. period after the removal of females. The postcoital behaviour was characterized by following marks: 0—the animal is passive, lays down; 1—the rat is quiet; grooming; 2—the rat is mobile, rutting; 3—the animal is active, aggressive.
# The female rats used were in the estrus phase, induced by i.p. injection of 0.2 ml 0.1% estradiol dipropionate 48 h before the test.
# [2] = test system: intracorporeal pressure (corpus cavernosum penis); assay: intracorporeal pressure in narcotized rats, intracavernous injection; format: in vivo
# Description: (§1) The influence of the experimental substances on the penile erection was evaluated using the experimental model, where changes of intracorporeal pressure was measured (Chen K K et al. J Urol, 1992;147:1124). Rats were anesthetized by sodium pentobarbital (50 mg/kg i.p. plus additionally 8 mg/kg/h i.v.). Body temperature was kept at 37-37.4° C. (rectal control) by heating lamp. Endotracheal tube was inserted to assure adequate respiration under anesthesia. Number 25 needle filled with heparinized saline was connected to pressure transducer and introduced into corpus cavernosum penis. Intracavernous pressure and II standard lead on an ECG was continuously recorded on physiograph DMP-4B (Narco Bio-Systems, USA). In some experiments arterial pressure in common carotid artery was also recorded. The effects of experimental substances were determined both at intravenous and intracavernous introduction route. For the intracorporeal injection the substances were dissolved in isotonic (0.9%) NaCl solution and the dose introduced in 0.05 ml of liquid. […] Gamma-butyrobetaine (GBB) was introduced separately and in combination with THP or phosphodiesterase inhibitor, in particular, sildenafil. Gamma-butyrobetaine (GBB) (intracavernous injection 0.02-0.1 mg per rat, usually 0.05 mg per rat; intravenously 2.0 mg/kg) and THP (intracavernous injection 0.2 mg per rat; intravenously 10.0 mg/kg) were introduced separately and as combination (GBB+THP).
# [3] = test system: intracavernous pressure (corpus cavernosum penis); assay: intracavernous pressure in narcotized rats, intravenous injection; format: in vivo; settings: intravenously: GBB 2.0 mg/kg, THP 10.0 mg/kg, sildenafil 3.0 mg/kg, papaverine 2.0 mg/kg
# Description: as §1, with “Adult male rats, weighing 300-410 g were used. The influence” for “The influence”, “particular, sildenafil. […]” for “particular, sildenafil. Gamma-butyrobetaine (GBB) (intracavernous injection 0.02-0.1 mg per rat, usually 0.05 mg per rat; intravenously 2.0 mg/kg) and THP (intracavernous injection 0.2 mg per rat; intravenously 10.0 mg/kg) were introduced separately and as combination (GBB+THP).”
structure (smiles),measurement,setting,value
"C[N+](C)(C)CCCC(=O)[O-] [GBB, gamma-butyrobetaine]",rat post-coital agitation period,"[1]; 1 week of therapy, behaviour marks 0-3 during 5 min after removal of females",2.0 ± 0.4
same,number of mounting attempts of male rats,"[1]; 1 week of therapy, drinking water, GBB 15 mg/kg daily, THP 60 mg/kg daily, 10 min exposition",3.8 ± 0.4
same,delay time before attempts of mounting,"[1]; 4 weeks of therapy, drinking water, GBB 15 mg/kg daily, THP 60 mg/kg daily",1.8 ± 0.4 min
same,number of copulations,"[1]; 6 weeks of therapy, drinking water, GBB 15 mg/kg daily, THP 60 mg/kg daily",1.2 ± 0.2
same,Duration of effect,[2]; dose 0.02 mg per rat,3.0 ± 0.7 min
same,Increase of intracorporeal pressure,[2]; dose 0.02 mg per rat,11.25 ± 3.3 mmHg
same,Duration of effect,[2]; dose 0.05 mg per rat,4.3 ± 0.9 min
same,Changes of intracavernous pressure,[3],22.0 ± 3.6 mm Hg
same,Reflectory increase of intracavernous pressure,[3],7.3 ± 2.0 mm Hg
